Experimental data as given in PMC11965403.

Amino acid sequences for entries named in this document (tags omitted).
UniProt Q86U44: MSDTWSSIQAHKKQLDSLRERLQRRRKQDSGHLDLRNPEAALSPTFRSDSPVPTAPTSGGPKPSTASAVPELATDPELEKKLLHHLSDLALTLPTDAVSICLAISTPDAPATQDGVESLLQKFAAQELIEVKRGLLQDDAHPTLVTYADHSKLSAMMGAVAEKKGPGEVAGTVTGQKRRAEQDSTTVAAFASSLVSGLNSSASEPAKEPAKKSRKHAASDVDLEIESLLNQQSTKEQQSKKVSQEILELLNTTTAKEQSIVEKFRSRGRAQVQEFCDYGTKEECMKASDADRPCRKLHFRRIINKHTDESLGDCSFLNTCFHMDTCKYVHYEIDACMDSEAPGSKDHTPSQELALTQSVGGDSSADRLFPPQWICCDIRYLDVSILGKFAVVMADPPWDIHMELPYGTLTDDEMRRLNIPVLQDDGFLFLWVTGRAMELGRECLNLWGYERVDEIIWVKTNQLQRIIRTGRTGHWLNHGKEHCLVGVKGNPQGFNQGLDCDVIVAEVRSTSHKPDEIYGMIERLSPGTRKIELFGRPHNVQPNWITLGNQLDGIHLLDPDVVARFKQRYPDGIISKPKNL
UniProt P19474: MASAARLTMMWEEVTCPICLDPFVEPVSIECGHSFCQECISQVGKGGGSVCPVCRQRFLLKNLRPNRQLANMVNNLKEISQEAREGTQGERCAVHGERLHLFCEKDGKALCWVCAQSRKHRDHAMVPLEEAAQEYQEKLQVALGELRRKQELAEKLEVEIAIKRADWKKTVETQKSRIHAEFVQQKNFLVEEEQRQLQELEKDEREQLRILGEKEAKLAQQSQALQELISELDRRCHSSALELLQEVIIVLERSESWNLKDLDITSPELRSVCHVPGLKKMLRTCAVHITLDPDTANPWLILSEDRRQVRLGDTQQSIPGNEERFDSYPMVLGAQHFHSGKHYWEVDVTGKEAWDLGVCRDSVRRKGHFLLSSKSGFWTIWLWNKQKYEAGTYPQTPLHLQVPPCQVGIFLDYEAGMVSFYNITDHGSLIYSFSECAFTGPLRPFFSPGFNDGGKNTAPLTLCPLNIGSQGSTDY

Target: endogenous METTL3 (human (endogenous in pancreatic cancer cells)) (UniProt Q86U44)
Assay: affinity purification with mass spectrometry; METTL3-associated protein complexes isolated from pancreatic cancer cells by co-IP, analysed by LC-MS/MS; three independent analyses

endogenous TRIM21 (from UniProt P19474 1-475)
binding: binds

No constants are given. Whether binding was seen depends on the method and setting. In cells and extracts the contact can be indirect. Here binding means that the protein was enriched with, or labelled near, the bait; the list need not be complete.
